Test system: SHR-SP
Experiment: chronic treatment of SHR-SP on high salt/fat diet: survival, blood pressure, renal and cardiac function
Type: in vivo, rat
Text: The SHR-SP is an established model of genetic hypertension. […] As such, a cohort of HSFD SHR-SP was established as a model of cardiovascular disease associated with chronic oxidative stress in this study.
A subgroup of animals (n = 45) was anesthetized with isoflurane and surgically implanted with radiotelemetry transmitters (PhysioTel PA-C40, Data Sciences International, St. Paul, MN, USA). The transmitter catheter was threaded through the femoral artery into the abdominal aorta. At 11–12 weeks of age, baseline blood pressure and heart rate were measured for 5 days (10 s recordings every 5 min) in normal caging, then rats were acclimated to metabolic caging for a minimum of 48 h before a basal 24 h urine sample and blood were collected. […] The ND group was maintained on normal chow and water throughout the study. […] Rats displaying signs of morbidity which included piloerection, lack of grooming, persistent body weight loss, lethargy, or seizure/convulsions, were promptly euthanized.
Treatments were administered in respective diets starting 1 week after the initiation of HSFD. Urine collections were repeated on weeks 2, 4, 6, and 8 and blood was sampled in the morning after each 24 h collection period for assessment of renal function. Plasma creatinine and urine sodium, microalbumin (MALB), and creatinine were ascertained using an AU640 Chemistry Analyzer (Olympus America, Inc., Center Valley, PA, USA). Plasma compound concentrations were determined as described above.
During week 7, cardiac function and morphometry were evaluated via transthoracic echocardiography. Rats were anesthetized with isoflurane (2–4% induction and 1–3% maintenance). Two-dimensional gray scale images of the left ventricle were obtained in the short axis plane at mid-ventricle level and in the parasternal long axis plane using a GE Vivid 7 system (GE Medical Systems, Milwaukee, WI, USA) and stored as digital cineloops. Pulse wave Doppler recordings from the LV outflow were obtained to determine heart rate. All images were analyzed by a single observer using a GE EchoPac (GE Medical Systems, Milwaukee, WI, USA). LV volumes were calculated as V=5/6(LVA×LVL) where LVA is area of LV chamber from the short axis view and LVL is the LV length from the long axis view at end diastole and end systole. […] Analysis was performed on three to five cardiac cycles.

| SMILES | BW (body weight at week 7) (HSFD + 0.3 mg/kg/day in chow) | BW (body weight at week 7) (HSFD + 3.0 mg/kg/day in chow) | BW (body weight at week 7) (HSFD + 0.1 mg/kg/day in chow) | BW (body weight at week 7) (HSFD + 1.0 mg/kg/day in chow) |
| --- | --- | --- | --- | --- |
| COC(=O)Nc1c(N)nc(-c2nn(Cc3ccccc3F)c3ncccc23)nc1N [BAY 60-4552] | 328 ± 6 g | 345 ± 14 g |  |  |
| Cc1cc(-c2ccc(OC(F)(F)F)cc2)ccc1COc1ccccc1-c1cccc(-n2ncc(C(=O)O)c2C(F)(F)F)n1 [GSK2181236A, 1-(6-{2-[({3-methyl-4′-[(trifluoromethyl)oxy]-4-biphenylyl}methyl)oxy]phenyl}-2-pyridinyl)-5-(trifluoromethyl)-1H-pyrazole-4-carboxylic acid] |  |  | 331 ± 16 g | 338 ± 5 g |

— publication PMC3389674, “Comparison of Soluble Guanylate Cyclase Stimulators and Activators in Models of Cardiovascular Disease Associated with Oxidative Stress” (Frontiers in Pharmacology, 2012)
